In test [1] the target is T1, DAZL (endogenous in wildtype mouse testes; full-length isoform DAZL_FL predominant) (mouse (endogenous in testes)) (UniProt Q64368).
T1 sequence: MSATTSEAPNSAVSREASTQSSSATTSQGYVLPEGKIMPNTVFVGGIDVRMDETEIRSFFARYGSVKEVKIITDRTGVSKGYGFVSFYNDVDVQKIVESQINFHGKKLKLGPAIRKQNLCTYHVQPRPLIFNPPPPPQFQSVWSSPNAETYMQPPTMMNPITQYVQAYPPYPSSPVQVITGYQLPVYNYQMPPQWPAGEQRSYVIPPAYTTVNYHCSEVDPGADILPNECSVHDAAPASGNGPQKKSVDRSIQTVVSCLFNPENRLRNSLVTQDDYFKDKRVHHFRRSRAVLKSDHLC
Nature of the test: co-IP; testes of wildtype and Dazl^E8KO mice; blots for DAZL, EIF4G3 and PABPC1; non-immune IgG as negative control.

Chains of the proteins cited; added tags and fusions are not shown.
UniProt Q80XI3: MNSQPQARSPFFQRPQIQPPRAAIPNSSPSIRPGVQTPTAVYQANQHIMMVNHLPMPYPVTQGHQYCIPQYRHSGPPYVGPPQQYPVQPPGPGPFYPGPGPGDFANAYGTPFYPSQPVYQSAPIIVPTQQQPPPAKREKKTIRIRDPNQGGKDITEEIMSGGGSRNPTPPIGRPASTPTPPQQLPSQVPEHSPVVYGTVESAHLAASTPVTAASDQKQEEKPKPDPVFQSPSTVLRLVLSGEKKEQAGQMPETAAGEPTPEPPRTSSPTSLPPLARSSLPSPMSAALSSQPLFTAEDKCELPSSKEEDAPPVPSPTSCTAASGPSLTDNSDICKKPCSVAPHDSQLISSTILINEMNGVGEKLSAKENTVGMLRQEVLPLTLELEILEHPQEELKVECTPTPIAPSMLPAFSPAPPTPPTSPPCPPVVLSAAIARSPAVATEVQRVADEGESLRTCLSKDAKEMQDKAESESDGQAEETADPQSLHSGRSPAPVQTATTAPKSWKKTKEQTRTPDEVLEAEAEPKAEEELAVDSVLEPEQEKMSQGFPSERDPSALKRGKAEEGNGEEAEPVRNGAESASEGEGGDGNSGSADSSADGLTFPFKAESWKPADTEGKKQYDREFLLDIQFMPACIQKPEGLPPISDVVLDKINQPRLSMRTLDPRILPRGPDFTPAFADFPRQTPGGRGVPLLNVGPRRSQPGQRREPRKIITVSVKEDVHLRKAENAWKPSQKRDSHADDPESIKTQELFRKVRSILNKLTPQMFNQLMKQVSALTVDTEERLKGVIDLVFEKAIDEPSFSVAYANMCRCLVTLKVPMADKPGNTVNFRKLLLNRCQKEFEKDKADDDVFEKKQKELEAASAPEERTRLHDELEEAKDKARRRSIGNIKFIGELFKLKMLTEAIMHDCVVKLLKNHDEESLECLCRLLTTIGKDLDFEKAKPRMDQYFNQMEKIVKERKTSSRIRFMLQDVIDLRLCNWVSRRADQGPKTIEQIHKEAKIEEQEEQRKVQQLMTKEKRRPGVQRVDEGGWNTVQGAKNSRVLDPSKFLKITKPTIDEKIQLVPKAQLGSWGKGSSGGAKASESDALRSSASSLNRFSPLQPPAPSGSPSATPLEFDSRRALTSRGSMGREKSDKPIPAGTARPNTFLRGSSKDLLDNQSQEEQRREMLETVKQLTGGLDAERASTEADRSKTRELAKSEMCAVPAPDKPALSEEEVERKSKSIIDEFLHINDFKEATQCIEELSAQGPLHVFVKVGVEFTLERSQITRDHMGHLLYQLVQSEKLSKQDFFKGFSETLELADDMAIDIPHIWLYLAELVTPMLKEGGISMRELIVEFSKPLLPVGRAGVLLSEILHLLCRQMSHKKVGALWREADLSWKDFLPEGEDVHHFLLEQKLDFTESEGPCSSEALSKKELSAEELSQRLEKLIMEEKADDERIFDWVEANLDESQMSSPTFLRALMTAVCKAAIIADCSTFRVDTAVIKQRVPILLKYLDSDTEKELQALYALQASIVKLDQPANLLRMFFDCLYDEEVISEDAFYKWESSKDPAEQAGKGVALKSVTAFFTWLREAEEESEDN
UniProt P29341: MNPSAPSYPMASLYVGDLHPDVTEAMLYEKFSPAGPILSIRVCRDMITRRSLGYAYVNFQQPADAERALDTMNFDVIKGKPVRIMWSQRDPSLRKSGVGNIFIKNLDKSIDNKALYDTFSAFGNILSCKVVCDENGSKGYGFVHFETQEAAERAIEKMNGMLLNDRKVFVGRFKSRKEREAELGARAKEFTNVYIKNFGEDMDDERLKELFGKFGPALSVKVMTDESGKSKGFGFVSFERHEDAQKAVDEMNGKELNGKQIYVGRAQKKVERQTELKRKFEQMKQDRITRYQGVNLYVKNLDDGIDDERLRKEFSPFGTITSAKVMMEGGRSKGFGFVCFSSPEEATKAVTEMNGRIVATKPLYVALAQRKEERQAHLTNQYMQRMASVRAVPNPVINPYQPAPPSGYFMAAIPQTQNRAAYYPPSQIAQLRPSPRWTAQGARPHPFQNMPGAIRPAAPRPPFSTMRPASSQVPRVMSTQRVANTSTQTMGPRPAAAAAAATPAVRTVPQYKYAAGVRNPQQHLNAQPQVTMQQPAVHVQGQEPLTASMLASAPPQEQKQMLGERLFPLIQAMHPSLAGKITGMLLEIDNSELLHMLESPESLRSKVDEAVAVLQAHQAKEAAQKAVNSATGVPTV

Test [2] concerns the target T2, DAZL short isoform lacking exon 8 (DAZL_Sh), endogenous in Dazl^E8KO mouse testes (mouse (endogenous in testes)) (UniProt Q64368).
T2 sequence: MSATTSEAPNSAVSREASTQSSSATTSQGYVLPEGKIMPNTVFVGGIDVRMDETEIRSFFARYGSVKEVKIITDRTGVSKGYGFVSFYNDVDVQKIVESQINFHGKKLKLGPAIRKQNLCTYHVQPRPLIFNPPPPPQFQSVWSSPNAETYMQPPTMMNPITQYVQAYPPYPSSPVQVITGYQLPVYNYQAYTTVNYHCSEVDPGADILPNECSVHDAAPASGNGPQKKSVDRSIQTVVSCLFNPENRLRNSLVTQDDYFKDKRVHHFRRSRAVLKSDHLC
Described as above.

Test [3] concerns the target T3, MYC-tagged DAZL_FL (mouse) (UniProt Q64368).
T3 sequence: T1 sequence
Nature of the test: co-IP; HEK293T cells (text: HEK293) over-expressing HA-tagged PABPC1 with MYC-tagged DAZL_FL or DAZL_Sh; IgG as negative control.

Results are given in words; binding and its absence hold for the method and conditions named. In cells and extracts the contact can be indirect. Some binding calls cover weakened binding; strength is not graded here. For some of these results: Sequences can lack the tags named with a protein.

Take “translation initiation factor EIF4G3, endogenous in mouse testes (from UniProt Q80XI3 1-1579)”: the binding entry in test [1] is given as “binds”; in test [2] it was “no binding”.

As for “Poly(A) Binding Protein Cytoplasmic 1 (PABPC1), endogenous in mouse testes (from UniProt P29341 1-636)”, in test [1], the binding entry is listed as “binds”.

In the case of “HA-tagged PABPC1 (from UniProt P29341 1-636)”, the binding entry in test [3] was “binds”.

The record behind these values is publication PMC12623972.
